The assay can be described thus: qHTS Assay for Lipid Storage Modulators in Drosophila S3 Cells.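 On cell number change: cells counted by Cell Tracker Red CMTPX staining in the red channel.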 The note with it: BODIPY lipid droplet fluorescence, 18-24 h; for cell number change: measured here: cell count max response, cells fed with added oleic acid. Summed up: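 Drosophila S3 cells got compounds at several concentrations plus oleic acid (400 uM solution). Laser-scanning cytometry with 488 nm excitation read lipid droplets at 500-530 nm and cells at 575-640 nm. Percent activity was relative to 20 uM Triacsin C.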
(In general: qHTS replaces the single test concentration by a dilution series.)

The mark [1] stands for this setting: measured here: cell number channel AC50, cells fed with added oleic acid.
Setting [2] is: measured here: lipid fluorescence (Fed channel) AC50, cells fed with added oleic acid.

The other results are listed elsewhere or left out. Shown are side measurements of this screen, not its main read-out; they come without a call. The list favours compounds with an active or inconclusive main result. The note in brackets gives the kind of curve behind each potency; many fits are weak.

Regarding `CCOc1ccc(CN(C)CC(=O)c2c(N)n(Cc3ccccc3)c(=O)n(CC)c2=O)cc1OC`, the cell number change was 2.93%.

For `Cc1ccnc(NC(=O)C2COc3ccccc3O2)c1` (stereo unspecified), the cell number change is -66.7%. Also, the AC50 under setting [1] is 5.17 µM [falling, full curve].

As to `CCOc1cc(NC(=S)NCCCN(C)C)c(OCC)cc1NC(=O)c1cccs1`, the cell number change is -53.4%. Also, the AC50 under setting [1] was 1.46 µM [falling, partial curve, poor fit]. Further, under setting [2], the AC50 was 1.3 µM [falling, full curve, poor fit].

As to `COc1ccc(CC(=O)NC(C)c2nnc(SCC(=O)Nc3ccccc3)n2C)cc1` (stereo unspecified), the cell number change is -49.7%. Moreover, the half-maximal activity concentration (AC50) under setting [1] is 6.51 µM [falling, single point]. Also, under setting [2], the AC50 is 4.11 µM [falling, single point].

Consider `N#CCSc1nccc(-c2cc(Cl)sc2Cl)n1`, for which the cell number change amounted to 95.3%. Besides, the concentration at half-maximal activity (AC50) under setting [1] is 29.1 µM [rising, single point]. Also, the AC50 under setting [2] is 16.4 µM [rising, partial curve].

Turning to `COc1cc(NC(=O)COc2cccc(C)c2C)ccc1NC(=O)c1ccco1`, the cell number change was determined as 58.1%. Also, the AC50 under setting [1] is 29.1 µM [rising, single point]. The half-maximal activity concentration (AC50) under setting [2] is 25.9 µM [falling, single point].

As to `COCCn1c(SCC(=O)N2CCCCC2)nc2c([nH]c3ccccc32)c1=O`, the cell number change was -16.6%.

`CCOC(=O)c1c(C)nc2ccccc2c1-c1ccccc1`: the cell number change was -26%. Also, the AC50 under setting [2] was 0.651 µM [rising, partial curve, poor fit].

`CCOc1ccc(N(CC(=O)NC(C)C)C(=O)CCC(=O)Nc2ccccn2)cc1`: the cell number change was -4.2%. For the same molecule, under setting [2], the AC50 was 4.11 µM [falling, full curve, poor fit].

In the case of `O=C(NCCCN1CCCC1)C1CCN(C(=O)c2cc3sccc3n2Cc2ccc(F)cc2)CC1`, the cell number change was -64.8%. The AC50 under setting [1] is 32.6 µM [falling, single point].

`COc1ccc(/C=C/C(=O)O)cc1S(=O)(=O)N1CCC(C)CC1`: the cell number change is 25.7%.

In the case of `Cc1ccccc1N1CCN(S(=O)(=O)C[C@]23CCC(CC2NC(=O)[C@@H](N)CCS(C)(=O)=O)C3(C)C)CC1` (stereo partly specified), the cell number change amounted to 35.8%. The AC50 under setting [1] is 1.03 µM [rising, full curve]. Besides, the AC50 under setting [2] was 1.64 µM [rising, full curve].

`CC(NCC(O)COC1CCC(C(C)(C)C)CC1)c1ccccc1` (stereo unspecified): the cell number change was -45.5%. Further, the AC50 under setting [1] was 29.1 µM [falling, single point]. Besides, the AC50 under setting [2] is 32.6 µM [falling, single point].

In the case of `COc1cccc(NC(=S)N2CCN(c3ccccn3)CC2)c1`, the cell number change turned out to be 8.15%. In addition, the AC50 under setting [2] was 4.61 µM [rising, single point].

In the case of `COc1ccc(S(=O)(=O)N2CCCC(C(=O)NCc3ccncc3)C2)cc1Cl` (stereo unspecified), the cell number change is -6.48%.

On to `Cc1noc(C(=O)Nc2ccc(F)c(Cl)c2)c1Cl`, for which the cell number change was 6.31%. For the same molecule, the AC50 under setting [1] is 6.51 µM [rising, single point].

Take `CSc1nsc(SCC(=O)Nc2ccccn2)n1`: the cell number change was -40.2%. Besides, the AC50 under setting [1] is 29.1 µM [falling, single point]. The AC50 under setting [2] is 18.4 µM [falling, single point].

Consider `CCOC(=O)CN1CC23C=CC(O2)C(C(=O)Nc2ccc(F)c(C)c2)C3C1=O` (stereo unspecified), for which the cell number change is -35.6%. For the same molecule, the AC50 under setting [1] is 0.58 µM [falling, full curve]. Moreover, under setting [2], the AC50 was 4.11 µM [falling, full curve].

On to `CC1CCN(S(=O)(=O)c2ccc3c(c2)CC(C)N3C(=O)C2CCC2)CC1` (stereo unspecified), for which the AC50 under setting [2] was 6.51 µM [rising, single point].

Regarding `O=C(c1cnc(Cl)c(Cl)c1)N1CCN(S(=O)(=O)c2ccc3ccccc3c2)CC1`, the cell number change was -40.1%. The AC50 under setting [1] is 32.6 µM [falling, single point]. For the same molecule, the AC50 under setting [2] is 5.17 µM [falling, single point].

As to `CCNC(=S)N/N=C(\C)c1ccc2ccccc2c1`, the cell number change is 26.5%. Also, the AC50 under setting [1] is 0.731 µM [rising, full curve, poor fit].

Regarding `O=C(NCCC1CCCCN1S(=O)(=O)c1ccc(F)cc1)C(=O)NC1CCCC1` (stereo unspecified), the cell number change is -36%. Further, the AC50 under setting [1] is 16.4 µM [falling, single point].

In the case of `CCOC(=O)C1=C(CCc2ccccc2)NC(=O)NC1c1cccc([N+](=O)[O-])c1` (stereo unspecified), the cell number change is -0.599%. Moreover, the AC50 under setting [2] was 0.116 µM [falling, full curve, poor fit].

Take `CCCn1c2ccc(/C(C)=N\O)cc2c2cc(/C(C)=N/O)ccc21`: the cell number change amounted to 16.7%. The AC50 under setting [1] was 1.3 µM [rising, partial curve, poor fit]. Also, under setting [2], the AC50 is 0.366 µM [rising, full curve, poor fit].

Take `CC1CCN(C(=O)CN(c2ccc(Cl)c(C(F)(F)F)c2)S(C)(=O)=O)CC1`: the AC50 under setting [2] is 6.51 µM [rising, single point].

`O=C(COc1ccc(Cl)cc1)NCc1nnc(SCC(=O)c2ccccc2)o1`: the cell number change was 14.5%. Further, the AC50 under setting [1] is 0.291 µM [rising, full curve, poor fit].

With `O=C(Nc1ccnc(-c2ccncc2)n1)c1ccccc1Cl`, the cell number change was 21.3%. Under setting [1], the AC50 is 2.31 µM [rising, single point]. In addition, the AC50 under setting [2] is 5.8 µM [rising, full curve].

For `CC(C)(C)c1ccc(OC(=O)N2CCOCC2)cc1`, the cell number change is -0.708%.

Regarding `CCCCN(Cc1ccccc1)c1ncnc2nc[nH]c12`, the cell number change is -36.2%. Also, under setting [1], the half-maximal activity concentration (AC50) is 18.4 µM [falling, partial curve]. Further, under setting [2], the AC50 was 18.4 µM [falling, single point].

Turning to `CC(C)(C)C1CCc2onc(C(=O)Nc3cnn(Cc4ccc(F)cc4)c3)c2C1` (stereo unspecified), the cell number change is -82.5%. In addition, the AC50 under setting [1] is 3.26 µM [rising, partial curve].

For the molecule `CCOC(=O)c1cc(NC(=O)/C=C\C(=O)O)ccc1Cl`, the cell number change was 52%. In addition, the AC50 under setting [1] is 0.103 µM [falling, full curve, poor fit]. In addition, the AC50 under setting [2] was 0.103 µM [falling, full curve, poor fit].

Take `C/C(=N\NC(=O)c1csc2ccccc12)c1ccc(O)cc1`: the cell number change stood at 18%. For the same molecule, the AC50 under setting [2] is 29.1 µM [rising, single point].

With `Cc1nnc(SCC(=O)c2c[nH]c3ccccc23)n1C1CC1`, the cell number change is -31.2%. The AC50 under setting [1] was 20.6 µM [falling, single point]. Further, the AC50 under setting [2] was 23.1 µM [falling, single point].

For the molecule `CCOc1cc(CNC2CCCC2)cc(Cl)c1OCc1ccc(F)cc1`, the cell number change was -92.4%. The AC50 under setting [1] was 29.1 µM [falling, single point]. Also, the AC50 under setting [2] is 0.291 µM [falling, partial curve, poor fit].

Usually AC50 stands for the midpoint of the concentration-response curve, whichever way the signal moves. High values mean weaker potency, low ones greater potency.

The values are drawn from PubChem BioAssay AID2685 (National Center for Advancing Translational Sciences (NCATS), 2010).
